Reference: the supplement of paper PMC10331698
± gives the standard deviation of the averaged measurements. Most values lie at the level of the controls, where differences are scatter.

Tests used:
Experiment in all cases: level (log10 ratio to DMSO vehicle control); higher = higher biomarker level / cell amount than vehicle control
[1] = compound: OCCC(F)(F)C(F)(F)C(F)(F)C(F)(F)C(F)(F)C(F)(F)C(F)(F)C(F)(F)F [8:2 Fluorotelomer alcohol]; conditions: 2200 nM; in DMSO
Procedure: (§1)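 BioMAP Diversity Plus panel of 12 human primary cell co-culture systems (3C, 4H, LPS, SAg, BT, BF4T, BE3C, CASM3C, HDF3CGF, KF3CT, MyoF, Mphg). Compounds were added 1 h before stimulation and left for 24 h (MyoF 48 h; BT 72 h for soluble read-outs or 6 d for IgG). Biomarkers were read by ELISA, cytotoxicity by SRB, PBMC viability and proliferation by Alamar Blue. Each well value was divided by the mean of 8 DMSO control wells on the same plate and log10 transformed; duplicate blinded samples were tested at 4 concentrations.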

[2] = compound: FC(F)(F)C(F)(F)C(F)(F)C(F)(F)C(F)(F)C(F)(F)C(F)(F)I [1-Iodopentadecafluoroheptane]; conditions: in DMSO
Procedure: as §1

[3] = compound: O=P(O)(O)CCC(F)(F)C(F)(F)C(F)(F)C(F)(F)C(F)(F)C(F)(F)C(F)(F)C(F)(F)F [((Perfluorooctyl)ethyl)phosphonic acid]; conditions: 2200 nM; in DMSO
Procedure: as §1

[4] = compound: O=C(O)C(F)(F)C(F)(F)OC(F)(F)F [Perfluoro-3-methoxypropanoic acid]; conditions: 2200 nM; in DMSO
Procedure: as §1

[5] = compound: O=S(=O)(Cl)C(F)(F)C(F)(F)C(F)(F)C(F)(F)C(F)(F)C(F)(F)C(F)(F)C(F)(F)F [Perfluoro-1-octanesulfonyl chloride]; conditions: 2200 nM; in DMSO
Procedure: as §1

[6] = compound: O=C(O)C(F)(F)OC(F)(F)C(F)(F)OC(F)(F)C(=O)O [Perfluoro-3,6-dioxaoctane-1,8-dioic acid]; conditions: 2200 nM; in DMSO
Procedure: as §1

Perfluoroundecanoic acid = compound: O=C(O)C(F)(F)C(F)(F)C(F)(F)C(F)(F)C(F)(F)C(F)(F)C(F)(F)C(F)(F)C(F)(F)C(F)(F)F [Perfluoroundecanoic acid]; conditions: in DMSO
Procedure: as §1

[7] = compound: O=C(O)C(F)(F)C(F)(F)C(F)(F)C(F)(F)C(F)(F)C(F)(F)C(F)(F)C(F)F [9-H-Perfluorononanoic acid]; conditions: 2200 nM; in DMSO
Procedure: as §1

Perfluorobutanoic acid = compound: O=C(O)C(F)(F)C(F)(F)C(F)(F)F [Perfluorobutanoic acid]; conditions: 2200 nM; in DMSO
Procedure: as §1

[8] = compound: OCC(F)(F)C(F)(F)C(F)(F)C(F)(F)C(F)(F)C(F)(F)C(F)(F)C(F)(F)C(F)(F)C(F)(F)C(F)(F)F [11:1 Fluorotelomer alcohol]; conditions: in DMSO
Procedure: as §1

[9] = compound: O=C(O)C(F)(F)OC(F)(F)C(F)(F)OC(F)(F)C(F)(F)C(F)(F)C(F)(F)F [Perfluoro-3,6-dioxadecanoic acid]; conditions: 2200 nM; in DMSO
Procedure: as §1

[10] = compound: O=C(O)C=CC(F)(C(F)(F)F)C(F)(F)F [3-(Perfluoroisopropyl)-2-propenoic acid]; conditions: in DMSO
Procedure: as §1

[11] = compound: C=CC(=O)OCC(F)(F)C(F)(F)C(F)(F)C(F)(F)COC(=O)C=C [1H,1H,6H,6H-Perfluorohexane-1,6-diol diacrylate]; conditions: 2200 nM; in DMSO
Procedure: as §1

[12] = compound: FC(F)C(F)(F)COCC1CO1 [((2,2,3,3-Tetrafluoropropoxy)methyl)oxirane]; conditions: 2200 nM; in DMSO
Procedure: as §1

Perfluoropropanoic acid = compound: O=C(O)C(F)(F)C(F)(F)F [Perfluoropropanoic acid]; conditions: 2200 nM; in DMSO
Procedure: as §1

[13] = compound: FC(F)(F)C(F)(F)C(F)(F)C(F)(F)C(F)(F)C(F)(F)C(F)(F)CCI [1-Iodo-1H,1H,2H,2H-perfluorononane]; conditions: in DMSO
Procedure: as §1

[14] = compound: C=C(C)C(=O)OCC(F)(F)C(F)(F)C(F)(F)F [2,2,3,3,4,4,4-Heptafluorobutyl methacrylate]; conditions: 2200 nM; in DMSO
Procedure: as §1

Perfluorooctanamide = compound: NC(=O)C(F)(F)C(F)(F)C(F)(F)C(F)(F)C(F)(F)C(F)(F)C(F)(F)F [Perfluorooctanamide]; conditions: 2200 nM; in DMSO
Procedure: as §1

Row | Test System | level (log10) [1] | level (log10) ([2]; 740 nM) | level (log10) ([2]; 2200 nM) | level (log10) ([2]; 6700 nM) | level (log10) ([2]; 20000 nM) | level (log10) [3] | level (log10) [4] | level (log10) [5] | level (log10) [6] | level (log10) (Perfluoroundecanoic acid; 740 nM) | level (log10) (Perfluoroundecanoic acid; 2200 nM) | level (log10) [7] | level (log10) (Perfluorobutanoic acid) | level (log10) ([8]; 370 nM) | level (log10) ([8]; 1100 nM) | level (log10) ([8]; 3300 nM) | level (log10) ([8]; 10000 nM) | level (log10) [9] | level (log10) ([10]; 2200 nM) | level (log10) ([10]; 6700 nM) | level (log10) ([10]; 20000 nM) | level (log10) ([10]; 60000 nM) | level (log10) [11] | level (log10) [12] | level (log10) (Perfluoropropanoic acid) | level (log10) ([13]; 740 nM) | level (log10) ([13]; 2200 nM) | level (log10) ([13]; 6700 nM) | level (log10) ([13]; 20000 nM) | level (log10) [14] | level (log10) (Perfluorooctanamide)
1 | 3C:CD141/Thrombomodulin | 0.039 ± 0.017 | 0.0155 ± 0.019 | 0.0025 ± 0.064 | -0.0215 ± 0.071 | -0.008 ± 0.081 | -0.0005 ± 0.018 | 0.0075 ± 0.049 | 0.013 ± 0.035 | 0.0175 ± 0.042 | -0.02 ± 0.057 | -0.032 ± 0.038 | 0 ± 0.024 | -0.0345 ± 0.079 | 0.004 ± 0.024 | 0.0225 ± 0.021 | 0.0705 ± 0.00071 | 0.09 ± 0.02 | -0.009 ± 0.028 | -0.005 ± 0.0085 | -0.0125 ± 0.023 | -0.006 ± 0.0057 | 0.0045 ± 0.016 | -0.018 ± 0.0085 | -0.006 ± 0.023 | -0.006 ± 0.014 | -0.0035 ± 0.0078 | -0.0045 ± 0.00071 | -0.028 ± 0.0014 | -0.01 ± 0.041 | 0.0265 ± 0.015 | -0.013 ± 0.016
2 | LPS:CD142/Tissue Factor | -0.033 ± 0.095 | -0.035 ± 0.15 | -0.031 ± 0.088 | 0.0105 ± 0.07 | 0.036 ± 0.02 | 0.0025 ± 0.0092 | 0.0155 ± 0.04 | -0.053 ± 0.068 | 0.021 ± 0.038 | 0.0795 ± 0.1 | 0.001 ± 0.0085 | -0.0405 ± 0.015 | -0.001 ± 0.0099 | 0.047 ± 0.0014 | 0.056 ± 0.0028 | 0.084 ± 0.03 | 0.0995 ± 0.00071 | 0.008 ± 0.0099 | 0.0085 ± 0.029 | 0.0105 ± 0.0078 | -0.021 ± 0.025 | 0.006 ± 0.021 | 0.0155 ± 0.025 | 0.029 ± 0.033 | 0.0075 ± 0.0035 | 0.0395 ± 0.07 | 0.052 ± 0.044 | 0.046 ± 0.073 | -0.0215 ± 0.09 | 0.001 ± 0.011 | -0.0115 ± 0.052
3 | BF4T:PAI-I | 0.0055 ± 0.013 | -0.005 ± 0.024 | -0.008 ± 0.0057 | -0.004 ± 0.0085 | -0.0235 ± 0.0092 | 0.012 ± 0.011 | 0.0115 ± 0.019 | 0.0095 ± 0.016 | 0.008 ± 0.018 | -0.0035 ± 0.0021 | 0.006 ± 0.018 | -0.0305 ± 0.018 | 0.019 ± 0.0028 | -0.001 ± 0.014 | -0.003 ± 0.011 | -0.003 ± 0.0042 | 0.002 ± 0.027 | -0.023 ± 0.016 | 0.0035 ± 0.022 | 0 ± 0.0099 | 0.001 ± 0.0014 | 0.0155 ± 0.026 | -0.009 ± 0.016 | 0.006 ± 0.018 | 0.0065 ± 0.022 | 0.02 ± 0.025 | 0.015 ± 0.013 | -0.0005 ± 0.013 | -0.013 ± 0.011 | 0.0015 ± 0.0064 | 0.0045 ± 0.0064
